From US6362160B1, “Immunophilin-binding agents prevent glutamate neurotoxicity associated with vascular stroke and neurodegenerative diseases” (The Johns Hopkins University School of Medicine, priority 1993, dated 2002)
For at least one compound, name, drawing or mass did not settle the structure.

How the values were obtained:
[1] = system: cGMP formation in primary neuronal cortical cultures; assay: cGMP levels in primary neuronal cortical cultures; format: cell-based, rat
Description: Methods: Primary neuronal cortical cultures were treated under identical conditions as those used for assessment of neurotoxicity except for the addition of 100 μM isobutylmethylxanthine (IBMX) to all wells to inhibit phosphodiesterases. […] Following ether extraction, cGMP was assayed utilizing an Amersham ^125 I-assay kit according to the manufacturer's instructions. Data represent the mean (±S.E.M.) of 6-12 wells (2-3 different plating of cultures) in duplicate. Statistical significance was determined by the Student's t-test, *p≦0.005.

[2] = system: primary cerebral cortical neuronal cultures; format: cell-based
Description: Methods: Primary neuronal cultures from cortex were prepared from fetal Sprague-Dawley rats gestation day 13-14. After dissection, the cells were dissociated by trituration, counted, and plated in 15 mm multi-well (Nunc) plates coated with polyornithine at a density of 3-4×10^5 cells per well. Proliferation of non-neuronal cells was inhibited by applying 10 μg of 5-fluor-2′-deoxyuridine 4 days after plating for a total of 3 days. Neurons were maintained in modified Eagle's medium (MEM), 5% horse serum, 2 mM glutamine in 8% CO2, humidified at 37° C. Media was changed twice a week. Mature neurons (greater than 21 days in culture) were used in all experiments.
Neurotoxicity was determined by exposing the neurons to the various test solutions as previously described (Dawson, et al., Proc. Natl. Acad. Sci., USA, 88:6368-6371 (1991)). Prior to exposure, the cells were washed 3 times with a Tris-buffered control solution (CSS) containing 120 mM NaCl, 5.4 mM KCl, 1.8 mM CaCl2, 25 mM Tris-HCl, 15 mM glucose at pH 7.4. […] Rapamycin (RAPA) was applied 5 min. prior to and during the application of FK-506 and the excitatory amino acids. Following immunosuppressant drug pretreatment, NMDA and quisqualate were applied to the cells for 5 min., then the cells were washed with CSS and replaced with MEM, 21 mM glucose for 24 hr. in the incubator. Exposures to kainate were performed in MEM, 21 mM glucose for 24 hr. in the incubator. NMDA, quisqualate, and kainate were also applied to the neurons without immunosuppressant drug pretreatment. The effect of N-Arg (L-nitroarginine) on NMDA neurotoxicity was assessed as described (Dawson, et al., Proc. Natl. Acad. Sci., USA, 88:6368-6371 (1991)). Twenty to 24 hr. after exposure to test solutions, the neurons were exposed to 0.4% trypan blue in CSS to stain the residue of non-viable cells and to assess toxicity. Viable and non-viable cells were counted with approximately 500-1,500 cells counted per well. At least two separate experiments utilizing four separate wells were performed for each data point shown. A minimum of 4,000-12,000 neurons were counted for each data point. In some experiments photomicrographs were made before and after treatment using a transparent grid at the bottom of each culture plate. Viable and non-viable neurons in identical fields were counted by an observer blinded to study design and treatment protocol.

NOS = assay: TPA-stimulated phosphorylation of purified brain NOS in whole rat brain soluble extracts; format: biochemical; settings: 100 nM FK-506, 10 μM free Ca2+, 200 nM TPA, 20 min at 25° C.

Structure (SMILES) | effect on the NMDA stimulation of cGMP ([1]; Rapamycin 1 μM) | reversal of FK-506 inhibition of glutamate toxicity ([2]; 1 μM rapamycin, 500 nM FK-506) | reversal of the protective effects of FK-506 against NMDA neurotoxicity ([2]; Rapamycin 1 μM) | effect on the stimulation of cGMP levels by sodium nitroprusside (SNP) ([1]; FK-506) | TPA-stimulated phosphorylation of NOS (NOS) | effect on glutamate toxicity ([2]; 500 nM FK-506, 500 μM glutamate) | protection against kainate toxicity ([2]; 500 nM FK-506, kainate 100 μM) | protection against quisqualate toxicity ([2]; 500 nM FK-506, quisqualate 500 μM) | protection from NMDA neurotoxicity ([2]; FK-506 for 5 min prior to and during the 5 min of NMDA application)
CO[C@H]1C[C@@H]2CC[C@@H](C)[C@@](O)(O2)C(=O)C(=O)N2CCCC[C@H]2C(=O)O[C@H]([C@H](C)C[C@@H]2CC[C@@H](O)[C@H](OC)C2)CC(=O)[C@H](C)/C=C(\C)[C@@H](O)[C@@H](OC)C(=O)[C@H](C)C[C@H](C)/C=C/C=C/C=C/1C [RAPA, Rapamycin] | diminishes | reversed | completely reverses | – | – | – | – | – | –
C=CC[C@@H]1/C=C(\C)C[C@H](C)C[C@H](OC)[C@H]2O[C@@](O)(C(=O)C(=O)N3CCCC[C@H]3C(=O)O[C@H](/C(C)=C/[C@@H]3CC[C@@H](O)[C@H](OC)C3)[C@H](C)[C@@H](O)CC1=O)[C@H](C)C[C@@H]2OC [FK-506] | – | – | – | not affected | substantially increased | inhibited | fails to protect | fails to protect | marked protection
